Laboratory results published in EP2923697B1, “Extract and novel isolated compound from Aspergillus terreus for treatment of mouth microbial infections” (King Saud University, priority 2014, dated 2015).
Converted amounts (≈) assume the structure as drawn.

System: Candida albicans
Experiment: MIC determination, micro-dilution method
Assay type: cell-based
Settings: read-out: Minimum Inhibitory Concentration
Text: Mouth microbial representatives including unicellular fungi; Candida albicans (RCMB 05382), Candida glabrata (RCMBA 05386), Candida parapsilosis (RCMBA 06002), Candida tropicalis (RCMB 05384), Gram-positive bacteria; Lactobacillus acidophilus (RCMBA 4267), Streptococcus gordonii (RCMBA 2004), Streptococcus mutans (RCMBA 4131), and Gram-negative bacteria; Pseudomonas aeruginosa (RCMBA 1002) were obtained from the Regional Center for Mycology and Biotechnology (RCMB), Al-Azhar University, Cairo, Egypt, as test organisms.
The minimum inhibitory concentration (MIC) was determined by micro-dilution method using serially diluted (2 folds) extract and isolated compound. MIC of the extract was determined by dilution of extract and isolated compound of concentrations of 0.0-1000 µg/ml. Equal volume of each extract and nutrient broth were mixed in a test tube. Specifically 0.1 ml of standardized inoculum (1-2 X 10^7 CFU/ml) was added in each tube. The tubes were incubated at 37°C for 24-48 h. Two control tubes containing the growth medium, saline and the inoculum were maintained for each test batch. The lowest concentration (highest dilution) of the extract that produced no visible microbial growth (no turbidity) when compared with the control tubes were regarded as MIC.

Work on `C[C@@H]1[C@H](O)[C@@H](C)/C=C/C=C/C=C/C=C/C=C/C=C/C=C/[C@H](O[C@@H]2O[C@H](C)[C@@H](O)[C@H](N)[C@@H]2O)C[C@@H]2O[C@](O)(C[C@@H](O)C[C@@H](O)[C@H](O)CC[C@@H](O)C[C@@H](O)CC(=O)O[C@H]1C)C[C@H](O)[C@H]2C(=O)O` [Amphotericin B, reference compound] yielded an MIC of 1.95 µg/mL (≈ 2.11 µM).
